Test results: publication PMC7612807
These are yes or no findings as the source states them, for the method shown. In cells and extracts the contact can be indirect. Some entries that bind do so weakly or less than the wild type. For part of these data: Tags and fused reporters may be left off the sequences shown.

Chains of the proteins cited; added tags and fusions are not shown.
UniProt Q9P296: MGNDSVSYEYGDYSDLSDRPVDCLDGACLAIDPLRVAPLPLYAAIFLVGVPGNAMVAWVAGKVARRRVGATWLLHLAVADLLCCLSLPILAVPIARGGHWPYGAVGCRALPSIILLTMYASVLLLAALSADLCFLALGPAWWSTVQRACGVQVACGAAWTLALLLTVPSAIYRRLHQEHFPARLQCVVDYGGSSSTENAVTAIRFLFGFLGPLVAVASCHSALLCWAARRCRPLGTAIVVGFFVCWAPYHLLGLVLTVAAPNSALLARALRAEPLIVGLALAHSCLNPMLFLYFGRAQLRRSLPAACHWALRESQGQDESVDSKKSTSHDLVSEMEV
UniProt P32121: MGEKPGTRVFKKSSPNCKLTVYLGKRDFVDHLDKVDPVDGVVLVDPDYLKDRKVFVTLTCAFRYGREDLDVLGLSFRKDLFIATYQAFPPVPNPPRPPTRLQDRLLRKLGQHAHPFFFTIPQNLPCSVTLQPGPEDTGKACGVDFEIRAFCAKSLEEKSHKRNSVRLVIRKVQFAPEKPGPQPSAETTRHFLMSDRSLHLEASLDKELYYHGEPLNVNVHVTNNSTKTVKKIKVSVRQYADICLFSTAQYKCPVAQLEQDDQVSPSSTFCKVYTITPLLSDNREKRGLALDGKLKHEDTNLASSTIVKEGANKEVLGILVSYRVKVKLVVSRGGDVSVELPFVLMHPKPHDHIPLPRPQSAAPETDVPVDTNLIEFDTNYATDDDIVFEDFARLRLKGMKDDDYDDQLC
UniProt P49407: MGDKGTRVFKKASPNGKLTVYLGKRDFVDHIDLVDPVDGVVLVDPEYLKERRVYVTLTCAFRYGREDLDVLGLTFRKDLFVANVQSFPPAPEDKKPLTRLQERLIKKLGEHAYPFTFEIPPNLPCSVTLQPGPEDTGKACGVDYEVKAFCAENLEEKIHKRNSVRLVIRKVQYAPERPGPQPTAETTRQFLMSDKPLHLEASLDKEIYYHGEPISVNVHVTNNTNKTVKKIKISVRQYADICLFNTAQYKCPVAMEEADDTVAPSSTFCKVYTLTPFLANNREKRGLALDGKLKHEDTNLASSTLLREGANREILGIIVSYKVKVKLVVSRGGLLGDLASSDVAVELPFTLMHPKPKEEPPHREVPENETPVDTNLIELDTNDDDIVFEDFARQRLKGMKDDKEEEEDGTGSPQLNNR

Assays:
[1] = target: T1, FLAG-tagged decoy D6 receptor, wild type (human) (UniProt O00590); test: co-IP + cross-linking; HEK293 cells co-transfected with D6R-WT or truncations (surface expression normalised) and βarr2; 100 nM CCL7 for 30 min; lysis in 20 mM HEPES pH 7.5, 350 mM NaCl; DSP 1.5 mM; 1% MNG; M1-FLAG beads, low and high salt washes; blot with anti-βarr antibody
T1 sequence: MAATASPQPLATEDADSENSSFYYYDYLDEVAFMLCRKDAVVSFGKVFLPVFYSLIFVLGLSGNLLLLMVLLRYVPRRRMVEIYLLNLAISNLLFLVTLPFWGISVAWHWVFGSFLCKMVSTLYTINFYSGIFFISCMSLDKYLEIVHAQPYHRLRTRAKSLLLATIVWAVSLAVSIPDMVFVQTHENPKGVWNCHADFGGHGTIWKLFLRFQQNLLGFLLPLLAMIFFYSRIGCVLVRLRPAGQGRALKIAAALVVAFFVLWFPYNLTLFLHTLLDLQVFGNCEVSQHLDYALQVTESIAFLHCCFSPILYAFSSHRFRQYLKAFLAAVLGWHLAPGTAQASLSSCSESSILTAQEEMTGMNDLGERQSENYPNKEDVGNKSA

[2] = target: T1, FLAG-tagged decoy D6 receptor, wild type (human); test: co-IP + cross-linking; βarr1 or βarr2 (3.5 μg DNA) co-expressed with the FLAG-receptor in HEK293 cells; agonist stimulation; DSP cross-linking; FLAG M1 beads; blot with anti-βarr antibody
[3] = target: FLAG-tagged complement C5a receptor subtype 2 (UniProt Q9P296); test: as above
[4] = target: T1, FLAG-tagged decoy D6 receptor, wild type (human); test: co-IP + cross-linking; lysate of HEK293 cells expressing FLAG-receptor, stimulated with 100 nM agonist (C5a for C5aR2, CCL7 for D6R); purified βarr1 or βarr2 (2.5 μg) added, 1 h room temperature; DSP 1.5 mM; solubilised in 1% MNG; captured on FLAG M1 antibody beads; blot with anti-βarr antibody; only the binder purified
[5] = target: FLAG-tagged complement C5a receptor subtype 2 (UniProt Q9P296); test: as above

Substance | binding [1] | binding [2] | binding [3] | binding [4] | binding [5]
β-arrestin 2 co-expressed with the receptor in HEK293 cells (from UniProt P32121 1-409) | binds | binds | binds |  | 
β-arrestin 1 co-expressed with the receptor in HEK293 cells (from UniProt P49407 1-418) |  | binds | binds |  | 
purified β-arrestin 1 (from UniProt P49407 1-418) |  |  |  | binds | binds
purified β-arrestin 2 (from UniProt P32121 1-409) |  |  |  | binds | binds
